For at least one entry, the source does not settle the construct or the ends of the probe. At least one result comes from cells or an extract, where the contact may be indirect. For part of these data: No signal at the amounts used counts as a negative. For part of these data: Where a protein sequence is shown, tags need not be part of it. For part of these data: Weaker means in comparison with the reference protein, sequence or condition of that experiment.
Key:
Experiment in all cases: pull-down
ISWI (endogenous) = ISWI (endogenous) (UniProt Q6DFM0); settings: uniform binding irrespective of methylation, biotin-dUTP/dATP fill-in, 20 mM Tris pH 8.0, 1 mM EDTA, 5 mM DTT, 5 mM MgCl2, 100 mM KCl, 0.125% NP40, protease inhibitors, overnight at 4 C, washes 100-200 mM KCl (up to 400 mM tested), protein in an extract, label: biotin-16-dUTP, biotin-14-dATP, streptavidin beads
MBD3 (endogenous) = settings: biotin-dUTP/dATP fill-in, 20 mM Tris pH 8.0, 1 mM EDTA, 5 mM DTT, 5 mM MgCl2, 100 mM KCl, 0.125% NP40, protease inhibitors, overnight at 4 C, washes 100-200 mM KCl (up to 400 mM tested), protein in an extract, label: biotin-16-dUTP, biotin-14-dATP, streptavidin beads
[1] = test system: MBD3 short form (endogenous); settings: biotin-dUTP/dATP fill-in, 20 mM Tris pH 8.0, 1 mM EDTA, 5 mM DTT, 5 mM MgCl2, 100 mM KCl, 0.125% NP40, protease inhibitors, overnight at 4 C, washes 100-200 mM KCl (up to 400 mM tested), protein in an extract, label: biotin-16-dUTP, biotin-14-dATP, streptavidin beads
MeCP2 (endogenous) = MeCP2 (endogenous) (UniProt Q9YGC6); settings: biotin-dUTP/dATP fill-in, 20 mM Tris pH 8.0, 1 mM EDTA, 5 mM DTT, 5 mM MgCl2, 100 mM KCl, overnight at 4 C, washes 100-200 mM KCl (up to 400 mM tested), protein in an extract, label: biotin-16-dUTP, biotin-14-dATP, streptavidin beads
Mi-2 (endogenous) = settings: possibly via NuRD complex, biotin-dUTP/dATP fill-in, 20 mM Tris pH 8.0, 1 mM EDTA, 5 mM DTT, 5 mM MgCl2, 100 mM KCl, 0.125% NP40, protease inhibitors, overnight at 4 C, washes 100-200 mM KCl (up to 400 mM tested), protein in an extract, label: biotin-16-dUTP, biotin-14-dATP, streptavidin beads
TFIIB (endogenous) = molecular target: T1, TFIIB (endogenous) (UniProt A0A8J0Q1H8); settings: biotin-dUTP/dATP fill-in, 20 mM Tris pH 8.0, 1 mM EDTA, 5 mM DTT, 5 mM MgCl2, 100 mM KCl, 0.125% NP40, protease inhibitors, overnight at 4 C, washes 100-200 mM KCl (up to 400 mM tested), protein in an extract, label: biotin-16-dUTP, biotin-14-dATP, streptavidin beads
T1 sequence (looked up, limits assumed): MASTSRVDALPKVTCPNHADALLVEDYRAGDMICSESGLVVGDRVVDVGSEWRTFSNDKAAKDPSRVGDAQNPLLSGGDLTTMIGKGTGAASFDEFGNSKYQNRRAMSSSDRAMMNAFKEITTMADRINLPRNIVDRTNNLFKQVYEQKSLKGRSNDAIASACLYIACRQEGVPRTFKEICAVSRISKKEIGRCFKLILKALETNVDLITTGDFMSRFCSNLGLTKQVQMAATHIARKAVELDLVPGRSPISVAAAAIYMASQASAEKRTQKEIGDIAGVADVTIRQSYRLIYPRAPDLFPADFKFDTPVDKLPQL

Chains of the proteins cited; added tags and fusions are not shown.
UniProt Q6DFM0, entry or part of it: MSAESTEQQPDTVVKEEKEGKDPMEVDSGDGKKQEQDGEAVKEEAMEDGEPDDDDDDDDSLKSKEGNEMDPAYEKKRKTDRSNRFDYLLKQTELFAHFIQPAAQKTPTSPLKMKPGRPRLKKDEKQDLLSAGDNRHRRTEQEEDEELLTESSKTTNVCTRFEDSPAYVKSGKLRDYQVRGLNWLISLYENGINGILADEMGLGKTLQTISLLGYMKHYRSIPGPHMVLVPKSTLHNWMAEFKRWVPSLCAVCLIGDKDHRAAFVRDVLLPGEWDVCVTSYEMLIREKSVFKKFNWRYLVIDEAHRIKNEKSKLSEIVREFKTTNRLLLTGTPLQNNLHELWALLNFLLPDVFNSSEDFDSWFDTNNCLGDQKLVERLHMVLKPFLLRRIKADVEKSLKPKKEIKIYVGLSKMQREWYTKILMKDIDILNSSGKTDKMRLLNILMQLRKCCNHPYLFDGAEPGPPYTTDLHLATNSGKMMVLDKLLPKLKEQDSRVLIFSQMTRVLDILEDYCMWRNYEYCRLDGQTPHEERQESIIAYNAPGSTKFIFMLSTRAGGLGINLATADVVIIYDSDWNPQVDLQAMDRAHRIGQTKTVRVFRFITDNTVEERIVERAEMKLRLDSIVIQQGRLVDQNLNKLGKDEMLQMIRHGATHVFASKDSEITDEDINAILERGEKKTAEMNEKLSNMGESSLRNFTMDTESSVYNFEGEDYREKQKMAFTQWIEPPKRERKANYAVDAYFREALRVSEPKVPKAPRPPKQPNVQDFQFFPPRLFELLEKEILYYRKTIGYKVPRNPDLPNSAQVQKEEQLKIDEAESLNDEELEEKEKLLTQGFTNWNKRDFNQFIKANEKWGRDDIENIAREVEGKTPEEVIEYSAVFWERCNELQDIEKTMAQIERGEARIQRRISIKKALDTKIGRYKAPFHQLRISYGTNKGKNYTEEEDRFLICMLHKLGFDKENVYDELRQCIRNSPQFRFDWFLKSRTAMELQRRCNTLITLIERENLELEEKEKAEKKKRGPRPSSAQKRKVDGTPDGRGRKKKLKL

[2] = 5-methylcytosine at CpG (SssI), both strands

| Sequence | binding result (ISWI (endogenous); [2]) | binding result (MBD3 (endogenous); mostly eluted at 200 mM KCl wash, 5-methylcytosine at CpG (SssI), both strands) | binding result [1, 2] | binding result (MeCP2 (endogenous); tolerates 100 and 200 mM KCl wash, 5-methylcytosine at CpG (SssI), both strands, 0.125% NP40, protease inhibitors) | binding result (Mi-2 (endogenous); [2]) | binding result (TFIIB (endogenous); [2]) | binding result (ISWI (endogenous)) | binding result (MBD3 (endogenous); legend: binds both, text: strong preference for methylated) | binding result ([1]; preference for methylated DNA) | binding result (MeCP2 (endogenous); strong preference for methylated DNA, 0.125% NP40, protease …) | binding result (Mi-2 (endogenous)) | binding result (TFIIB (endogenous)) |
| --- | --- | --- | --- | --- | --- | --- | --- | --- | --- | --- | --- | --- |
| GATCCCGGAGTTAA / GATCTTAACTCCGG [methylated concatamerized GATC-CCGG-AGTTAA probe (SssI+)] | binds | binds | binds | binds | binds | no binding |  |  |  |  |  |  |
| GATCCCGGAGTTAA / GATCTTAACTCCGG [unmethylated concatamerized GATC-CCGG-AGTTAA probe (SssI-)] |  |  |  |  |  |  | binds | binds | binds more weakly | binds more weakly | binds | no binding |
